Laboratory results from the supplement of paper PMC10849652.
The other results are listed elsewhere or left out.

Sequences of proteins named here, by UniProt entry; tags and fusion partners are left off. A change or cut given only in a name is not applied to a line headed by its entry.
UniProt P48147: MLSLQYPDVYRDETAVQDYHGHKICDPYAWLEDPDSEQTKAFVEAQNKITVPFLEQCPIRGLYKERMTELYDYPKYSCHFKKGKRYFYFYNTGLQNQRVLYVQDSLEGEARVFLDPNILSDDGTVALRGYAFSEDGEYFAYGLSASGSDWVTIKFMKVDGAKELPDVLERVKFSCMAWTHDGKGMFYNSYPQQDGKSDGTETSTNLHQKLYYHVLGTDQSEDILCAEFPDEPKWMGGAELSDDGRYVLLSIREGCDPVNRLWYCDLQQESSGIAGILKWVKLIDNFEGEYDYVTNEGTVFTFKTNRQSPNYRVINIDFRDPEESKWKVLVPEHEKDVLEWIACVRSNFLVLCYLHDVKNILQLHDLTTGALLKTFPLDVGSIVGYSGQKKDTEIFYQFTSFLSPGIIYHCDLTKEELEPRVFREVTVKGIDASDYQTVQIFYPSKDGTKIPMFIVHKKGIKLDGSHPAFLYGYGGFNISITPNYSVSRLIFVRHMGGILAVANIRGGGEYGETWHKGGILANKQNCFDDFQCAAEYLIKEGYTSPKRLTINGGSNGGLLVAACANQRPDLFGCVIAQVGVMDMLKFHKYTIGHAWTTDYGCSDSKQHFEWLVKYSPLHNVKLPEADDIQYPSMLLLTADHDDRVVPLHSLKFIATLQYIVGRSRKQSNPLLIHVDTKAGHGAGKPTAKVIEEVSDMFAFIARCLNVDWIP
UniProt Q9H875: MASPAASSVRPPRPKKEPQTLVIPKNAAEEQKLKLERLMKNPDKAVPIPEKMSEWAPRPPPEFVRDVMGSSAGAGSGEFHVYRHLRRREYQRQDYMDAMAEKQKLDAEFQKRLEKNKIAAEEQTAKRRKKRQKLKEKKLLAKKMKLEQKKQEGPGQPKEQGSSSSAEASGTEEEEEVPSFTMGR
UniProt Q06830: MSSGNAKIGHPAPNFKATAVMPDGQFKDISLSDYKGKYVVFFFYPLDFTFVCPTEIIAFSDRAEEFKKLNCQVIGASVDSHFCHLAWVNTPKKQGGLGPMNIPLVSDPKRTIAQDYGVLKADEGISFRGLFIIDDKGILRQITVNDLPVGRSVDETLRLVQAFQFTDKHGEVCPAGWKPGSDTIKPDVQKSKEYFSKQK
UniProt Q6IN85: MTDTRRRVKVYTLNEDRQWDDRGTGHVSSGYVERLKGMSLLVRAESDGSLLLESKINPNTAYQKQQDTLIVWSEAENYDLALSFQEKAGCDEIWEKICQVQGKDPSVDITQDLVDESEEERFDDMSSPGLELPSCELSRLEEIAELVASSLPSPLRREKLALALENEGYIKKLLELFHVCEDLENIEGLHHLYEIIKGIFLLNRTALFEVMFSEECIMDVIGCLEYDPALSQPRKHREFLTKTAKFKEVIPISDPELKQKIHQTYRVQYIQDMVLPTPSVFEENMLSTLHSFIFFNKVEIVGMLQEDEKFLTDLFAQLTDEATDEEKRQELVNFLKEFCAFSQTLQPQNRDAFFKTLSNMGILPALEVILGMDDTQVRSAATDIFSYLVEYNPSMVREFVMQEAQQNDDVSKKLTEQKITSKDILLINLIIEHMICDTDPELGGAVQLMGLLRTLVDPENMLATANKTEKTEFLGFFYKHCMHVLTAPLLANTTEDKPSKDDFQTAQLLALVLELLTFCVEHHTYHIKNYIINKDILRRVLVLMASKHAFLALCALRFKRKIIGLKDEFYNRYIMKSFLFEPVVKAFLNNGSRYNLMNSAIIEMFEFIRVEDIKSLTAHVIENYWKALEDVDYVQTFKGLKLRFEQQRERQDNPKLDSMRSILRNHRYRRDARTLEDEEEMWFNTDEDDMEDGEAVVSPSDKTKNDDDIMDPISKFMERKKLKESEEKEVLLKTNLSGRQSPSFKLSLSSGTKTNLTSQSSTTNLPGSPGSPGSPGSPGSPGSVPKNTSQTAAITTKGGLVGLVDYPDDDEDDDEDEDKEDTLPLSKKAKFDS
UniProt P41743, whole entry, looked up: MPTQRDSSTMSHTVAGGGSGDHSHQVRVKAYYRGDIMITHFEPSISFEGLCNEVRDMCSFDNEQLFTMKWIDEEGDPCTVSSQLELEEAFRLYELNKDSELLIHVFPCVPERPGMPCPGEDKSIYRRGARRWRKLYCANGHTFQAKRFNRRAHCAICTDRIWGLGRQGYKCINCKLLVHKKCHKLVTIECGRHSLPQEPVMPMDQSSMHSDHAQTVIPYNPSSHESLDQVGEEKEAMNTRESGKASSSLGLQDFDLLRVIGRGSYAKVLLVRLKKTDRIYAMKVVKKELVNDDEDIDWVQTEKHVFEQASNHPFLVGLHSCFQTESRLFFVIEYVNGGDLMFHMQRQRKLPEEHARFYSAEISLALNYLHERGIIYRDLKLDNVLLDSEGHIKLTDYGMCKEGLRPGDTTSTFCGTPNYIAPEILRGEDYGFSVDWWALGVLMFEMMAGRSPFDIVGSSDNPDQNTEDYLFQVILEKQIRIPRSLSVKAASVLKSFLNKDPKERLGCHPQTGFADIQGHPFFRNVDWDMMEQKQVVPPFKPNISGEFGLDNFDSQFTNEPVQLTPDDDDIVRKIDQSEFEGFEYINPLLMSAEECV
UniProt P30153, whole entry, looked up: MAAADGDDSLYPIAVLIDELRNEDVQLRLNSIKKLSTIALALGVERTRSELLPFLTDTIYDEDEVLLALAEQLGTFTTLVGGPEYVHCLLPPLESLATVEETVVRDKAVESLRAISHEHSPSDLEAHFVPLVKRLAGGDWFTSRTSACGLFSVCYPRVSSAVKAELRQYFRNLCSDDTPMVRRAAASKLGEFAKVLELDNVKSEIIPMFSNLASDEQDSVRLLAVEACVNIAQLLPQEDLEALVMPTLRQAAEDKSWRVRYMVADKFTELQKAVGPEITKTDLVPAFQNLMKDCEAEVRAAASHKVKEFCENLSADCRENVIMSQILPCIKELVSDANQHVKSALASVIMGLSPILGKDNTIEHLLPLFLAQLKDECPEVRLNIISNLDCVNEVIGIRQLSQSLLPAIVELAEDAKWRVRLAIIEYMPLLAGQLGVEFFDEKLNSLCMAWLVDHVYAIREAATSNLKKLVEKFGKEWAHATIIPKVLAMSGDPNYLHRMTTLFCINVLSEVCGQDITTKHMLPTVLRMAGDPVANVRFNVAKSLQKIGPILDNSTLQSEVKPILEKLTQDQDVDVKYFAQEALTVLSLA
UniProt P36873, whole entry, looked up: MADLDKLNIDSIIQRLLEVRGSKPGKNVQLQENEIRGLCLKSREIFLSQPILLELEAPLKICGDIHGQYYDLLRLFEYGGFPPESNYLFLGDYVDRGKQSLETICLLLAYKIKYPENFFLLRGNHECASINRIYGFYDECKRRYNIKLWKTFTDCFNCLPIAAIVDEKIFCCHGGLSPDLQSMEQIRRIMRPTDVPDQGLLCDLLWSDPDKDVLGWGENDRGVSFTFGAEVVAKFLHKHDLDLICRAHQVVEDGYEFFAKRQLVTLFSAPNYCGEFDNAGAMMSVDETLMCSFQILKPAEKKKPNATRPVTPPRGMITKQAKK
UniProt P63098, whole entry, looked up: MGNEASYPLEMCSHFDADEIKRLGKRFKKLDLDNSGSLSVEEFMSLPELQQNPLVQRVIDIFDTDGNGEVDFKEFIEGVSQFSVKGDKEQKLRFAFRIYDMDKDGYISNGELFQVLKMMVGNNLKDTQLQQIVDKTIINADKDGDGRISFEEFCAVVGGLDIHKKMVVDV
UniProt K7ELL7: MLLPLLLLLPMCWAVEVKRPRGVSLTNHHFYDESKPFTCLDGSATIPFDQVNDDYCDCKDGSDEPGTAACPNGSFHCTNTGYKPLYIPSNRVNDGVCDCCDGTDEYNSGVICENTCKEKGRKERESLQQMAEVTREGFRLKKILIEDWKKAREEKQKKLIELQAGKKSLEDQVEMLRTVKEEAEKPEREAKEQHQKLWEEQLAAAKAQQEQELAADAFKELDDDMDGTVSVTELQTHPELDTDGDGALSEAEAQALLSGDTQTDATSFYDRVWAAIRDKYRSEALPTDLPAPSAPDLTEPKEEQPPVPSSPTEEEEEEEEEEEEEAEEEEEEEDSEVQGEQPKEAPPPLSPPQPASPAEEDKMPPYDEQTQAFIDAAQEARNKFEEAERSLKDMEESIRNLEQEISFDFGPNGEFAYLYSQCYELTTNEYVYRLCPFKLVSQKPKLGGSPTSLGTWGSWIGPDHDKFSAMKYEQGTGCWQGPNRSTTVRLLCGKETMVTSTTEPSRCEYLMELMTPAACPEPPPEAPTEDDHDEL
UniProt Q9Y6M0: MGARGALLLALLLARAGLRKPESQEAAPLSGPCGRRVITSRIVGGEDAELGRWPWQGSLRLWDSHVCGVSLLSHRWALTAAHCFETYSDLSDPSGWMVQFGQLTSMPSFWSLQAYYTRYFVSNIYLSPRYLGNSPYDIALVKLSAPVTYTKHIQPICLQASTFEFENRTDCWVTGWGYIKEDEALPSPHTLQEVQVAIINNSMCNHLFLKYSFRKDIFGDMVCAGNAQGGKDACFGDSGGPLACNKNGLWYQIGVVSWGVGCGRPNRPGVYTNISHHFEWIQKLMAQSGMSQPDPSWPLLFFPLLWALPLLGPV
UniProt P41236: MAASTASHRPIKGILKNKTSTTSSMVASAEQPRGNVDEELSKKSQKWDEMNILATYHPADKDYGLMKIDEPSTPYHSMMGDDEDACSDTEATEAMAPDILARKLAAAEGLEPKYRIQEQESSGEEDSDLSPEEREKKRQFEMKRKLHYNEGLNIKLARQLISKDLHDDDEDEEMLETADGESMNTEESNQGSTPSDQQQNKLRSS
UniProt Q86WR7: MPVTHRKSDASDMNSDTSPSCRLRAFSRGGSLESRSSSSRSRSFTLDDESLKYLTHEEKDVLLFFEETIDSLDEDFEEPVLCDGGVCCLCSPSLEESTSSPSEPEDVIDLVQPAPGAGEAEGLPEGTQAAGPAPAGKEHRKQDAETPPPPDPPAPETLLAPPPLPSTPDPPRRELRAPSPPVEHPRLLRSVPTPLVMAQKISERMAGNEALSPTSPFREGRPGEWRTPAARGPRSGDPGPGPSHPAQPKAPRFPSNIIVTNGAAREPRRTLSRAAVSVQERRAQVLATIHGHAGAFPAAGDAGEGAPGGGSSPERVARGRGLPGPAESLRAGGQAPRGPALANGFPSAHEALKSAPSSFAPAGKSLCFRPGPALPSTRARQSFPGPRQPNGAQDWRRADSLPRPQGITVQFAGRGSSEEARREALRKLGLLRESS
UniProt Q6P2P2: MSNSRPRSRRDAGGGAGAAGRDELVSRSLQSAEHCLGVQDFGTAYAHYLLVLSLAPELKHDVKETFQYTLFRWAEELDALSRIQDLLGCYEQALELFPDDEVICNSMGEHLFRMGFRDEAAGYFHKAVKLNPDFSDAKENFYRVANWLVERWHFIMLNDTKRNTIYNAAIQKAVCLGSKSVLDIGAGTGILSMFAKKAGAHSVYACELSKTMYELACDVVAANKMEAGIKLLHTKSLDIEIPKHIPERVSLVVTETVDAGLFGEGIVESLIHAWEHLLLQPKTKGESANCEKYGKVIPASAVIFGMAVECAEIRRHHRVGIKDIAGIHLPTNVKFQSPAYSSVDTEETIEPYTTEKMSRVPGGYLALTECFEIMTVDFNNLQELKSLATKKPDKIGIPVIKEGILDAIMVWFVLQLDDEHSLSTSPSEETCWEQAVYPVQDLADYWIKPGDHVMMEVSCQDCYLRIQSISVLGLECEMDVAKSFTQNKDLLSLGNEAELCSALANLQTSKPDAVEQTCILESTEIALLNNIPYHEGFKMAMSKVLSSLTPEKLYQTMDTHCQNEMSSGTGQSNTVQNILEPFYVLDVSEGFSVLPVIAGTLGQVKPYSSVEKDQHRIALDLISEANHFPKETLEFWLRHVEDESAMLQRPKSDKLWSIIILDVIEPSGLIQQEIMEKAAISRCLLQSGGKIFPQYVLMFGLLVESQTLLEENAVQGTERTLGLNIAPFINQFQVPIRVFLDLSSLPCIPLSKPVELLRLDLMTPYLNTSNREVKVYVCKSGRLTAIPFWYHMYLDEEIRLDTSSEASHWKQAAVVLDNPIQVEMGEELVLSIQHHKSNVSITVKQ
UniProt O60927: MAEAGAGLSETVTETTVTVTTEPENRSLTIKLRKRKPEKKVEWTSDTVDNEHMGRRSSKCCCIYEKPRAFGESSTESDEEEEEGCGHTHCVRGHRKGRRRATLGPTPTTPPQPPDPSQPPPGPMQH
UniProt Q92733: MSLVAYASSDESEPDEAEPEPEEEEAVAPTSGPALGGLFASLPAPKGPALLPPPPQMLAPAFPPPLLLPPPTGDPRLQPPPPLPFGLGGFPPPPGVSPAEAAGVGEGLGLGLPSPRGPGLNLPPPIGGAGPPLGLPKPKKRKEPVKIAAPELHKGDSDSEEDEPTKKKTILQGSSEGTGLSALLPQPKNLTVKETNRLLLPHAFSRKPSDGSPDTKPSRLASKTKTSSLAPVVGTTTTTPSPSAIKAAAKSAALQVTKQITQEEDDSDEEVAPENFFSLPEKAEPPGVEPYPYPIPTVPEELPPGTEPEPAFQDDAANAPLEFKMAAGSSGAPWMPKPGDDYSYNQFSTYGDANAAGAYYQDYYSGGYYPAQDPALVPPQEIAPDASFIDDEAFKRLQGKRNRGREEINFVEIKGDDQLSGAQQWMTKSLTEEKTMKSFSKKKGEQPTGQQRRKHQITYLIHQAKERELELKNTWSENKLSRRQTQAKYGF

How the values were obtained:
Assay in all cases: log2 fold change, soluble protein after heating vs DMSO (PISA); higher = thermal stabilisation; K562 cells, 10 uM, 30 min; active = over 0.2 and 3.5 SD of the protein, either way, in both replicates (recomputed)
[1] = compound: NC(=O)Nc1cc(-c2cccc(F)c2)sc1C(=O)N[C@H]1CCCNC1
Method in brief: (§1)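 K562 cells at 2×10^6 cells/mL were treated with 10 μM compound for 30 min. Aliquots were heated for 3 min across 48°C-58°C, pooled, and extracted in PBS with 0.5% NP-40 at 4°C; soluble protein was the supernatant after 21,000xg for 90 min. Soluble protein was quantified by TMTpro 16plex LC-MS/MS with channel sums equalised, and reported as log2 fold change in thermal stability against DMSO controls, with values from duplicates.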

[2] = compound: NC(=O)c1cnc(N[C@@H]2CCCC[C@@H]2N)nc1Nc1cccc(-n2nccn2)c1
Method in brief: as §1

[3] = compound: NC1(c2ccc(-c3nc4ccn5c(=O)[nH]nc5c4cc3-c3ccccc3)cc2)CCC1
Method in brief: as §1

[4] = compound: NCC(=O)Nc1ccc(-n2nc(C(F)(F)F)cc2-c2ccc3c(ccc4ccccc43)c2)cc1
Method in brief: as §1

[5] = compound: Nc1ccccc1NC(=O)c1ccc(CNC(=O)OCc2cccnc2)cc1 [entinostat]
Method in brief: as §1

[6] = compound: O=C(CCCCCCC(=O)Nc1ccccc1)NO [vorinostat]
Method in brief: as §1

[7] = compound: O=C(CCCCCCNC(=O)c1cnc(N(c2ccccc2)c2ccccc2Cl)nc1)NO [citarinostat]
Method in brief: as §1

[8] = compound: O=C(O)c1ccc2c(c1)nc(Nc1cccc(Cl)c1)c1ccncc12 [silmitasertib]
Method in brief: as §1

[9] = compound: O=C1NC(=O)C(c2cnc3ccccn23)=C1c1cn2c3c(cc(F)cc13)CN(C(=O)N1CCCCC1)CC2
Method in brief: as §1

[10] = compound: c1cc(OCCN2CCCCC2)cc(-c2n[nH]c3ccc(-c4nnc[nH]4)cc23)c1
Method in brief: as §1

[11] = compound: c1cn2cc(-c3ccc4cn[nH]c4c3)nc(Nc3ccc(N4CCOCC4)cc3)c2n1 [entospletinib]
Method in brief: as §1

Measured: log2 fold change

PREP (UniProt P48147)
inactive: [1] 0.032 | [2] -0.11 | [3] -0.063 | [4] -0.046 | [5] 0.011 | [6] 0.029 | [7] 0.034 | [8] 0.148 | [9] 0.09 | [10] -0.09 | [11] 0.069

PPP1R18 (UniProt Q6NYC8)
inactive: [1] -0.015 | [2] -0.034 | [3] -0.02 | [4] -0.045 | [5] -0.025 | [6] -0.009 | [7] 0.009 | [8] 0.026 | [9] -0.225 | [10] -0.054 | [11] -0.037

PPP2R5D (UniProt Q14738)
inactive: [1] 0.012 | [2] -0.004 | [3] -0.101 | [4] -0.039 | [5] 0.086 | [6] 0.129 | [7] 0.078 | [8] 0.125 | [9] -0.028 | [10] -0.061 | [11] 0.043

PRKDC (UniProt P78527)
inactive: [1] -0.007 | [2] -0.024 | [3] -0.118 | [4] -0.031 | [5] 0.029 | [6] 0.028 | [7] 0.067 | [8] -0.017 | [9] -0.055 | [10] -0.008 | [11] -0.045

PRDX4 (UniProt Q13162)
inactive: [1] -0.02 | [2] -0.04 | [3] -0.087 | [4] -0.027 | [5] -0.015 | [6] 0.021 | [7] 0.011 | [8] 0.023 | [9] -0.008 | [10] -0.079 | [11] -0.008

PRKD2 isoform 3 (UniProt Q9BZL6)
inactive: [2] -0.217 | [3] -0.074 | [4] 0 | [5] 0.331 | [6] 0.186 | [8] 0.047 | [9] -0.014
active: [1] -0.515

PRKRIP1 (UniProt Q9H875)
inactive: [1] 0.102 | [2] 0.036 | [3] 0.087 | [4] 0.01 | [5] -0.009 | [6] -0.083 | [7] 0.001 | [8] 0.008 | [9] 0.124 | [10] -0.005 | [11] -0.021

PRDX1 (UniProt Q06830)
inactive: [1] -0.011 | [2] -0.023 | [3] -0.036 | [4] -0.014 | [5] -0.009 | [6] 0.002 | [7] 0.024 | [8] -0.017 | [9] -0.047 | [10] -0.017 | [11] 0.02

PPP4R3A (UniProt Q6IN85)
inactive: [1] -0.16 | [2] -0.039 | [3] -0.066 | [4] -0.04 | [5] -0.058 | [6] 0.064 | [7] 0.057 | [8] 0.092 | [9] -0.044 | [10] -0.034 | [11] 0.052

PQBP1 (UniProt O60828)
inactive: [1] -0.012 | [2] 0.027 | [3] 0.027 | [4] 0.073 | [5] -0.025 | [6] -0.029 | [7] -0.01 | [8] -0.018 | [9] -0.005 | [10] -0.014 | [11] -0.006

PRKCI (UniProt P41743)
inactive: [1] -0.041 | [2] -0.079 | [3] -0.108 | [4] -0.036 | [5] 0.007 | [6] 0.035 | [7] 0.031 | [8] 0.016 | [9] 0.046 | [10] -0.033 | [11] 0.048

PPP1R10 (UniProt Q96QC0)
inactive: [1] 0.166 | [2] 0.065 | [3] 0.174 | [4] 0.107 | [5] -0.059 | [6] -0.055 | [7] -0.025 | [8] 0.2 | [9] 0.377 | [10] -0.096 | [11] 0.107

PPP2R1A (UniProt P30153)
inactive: [1] -0.025 | [2] -0.027 | [3] -0.027 | [4] -0.023 | [5] -0.011 | [6] 0.009 | [7] 0.034 | [8] -0.014 | [9] -0.041 | [10] -0.025 | [11] 0.001

PPP1R7 (UniProt Q15435)
inactive: [1] -0.023 | [2] -0.088 | [3] -0.077 | [4] -0.032 | [5] -0.003 | [6] 0.063 | [7] -0.037 | [8] -0.041 | [9] 0.121 | [10] -0.053 | [11] 0.043

PPP1CC isoform 2 (UniProt P36873)
inactive: [1] -0.026 | [2] -0.012 | [3] 0.045 | [4] 0.033 | [5] 0.005 | [6] -0.022 | [7] 0.011 | [8] 0.009 | [9] -0.007 | [10] -0.071 | [11] -0.011

PPP2R1B isoform 2 (UniProt P30154)
inactive: [1] 0.075 | [2] -0.035 | [3] -0.121 | [4] 0.051 | [5] 0.017 | [6] 0.07 | [7] 0.048 | [8] 0.063 | [9] 0.038 | [10] -0.016 | [11] -0.011

PPP3R1 (UniProt P63098)
inactive: [1] -0.039 | [2] -0.028 | [3] -0.122 | [4] -0.019 | [5] 0.018 | [6] -0.016 | [7] 0.087 | [8] 0.04 | [9] -0.056 | [10] -0.022 | [11] 0.054

PRKCSH (UniProt K7ELL7)
inactive: [1] 0.025 | [2] 0.023 | [3] -0.052 | [4] -0.128 | [5] -0.106 | [7] 0.047 | [8] 0.171 | [9] 0.034 | [10] -0.136 | [11] -0.002

PPP1R14C (UniProt Q8TAE6)
inactive: [1] -0.185 | [2] -0.11 | [3] 0.198 | [4] 0.05 | [5] -0.196 | [6] 0.131 | [7] 0.022 | [8] -0.158 | [9] -0.217 | [10] 0.053 | [11] -0.022

6 neighbouring records already listed, for reference:
PRKCI (UniProt P41743)
inactive: [1] -0.041 | [2] -0.079 | [3] -0.108 | [4] -0.036 | [5] 0.007 | [6] 0.035 | [7] 0.031 | [8] 0.016 | [9] 0.046 | [10] -0.033 | [11] 0.048

PPP1R10 (UniProt Q96QC0)
inactive: [1] 0.166 | [2] 0.065 | [3] 0.174 | [4] 0.107 | [5] -0.059 | [6] -0.055 | [7] -0.025 | [8] 0.2 | [9] 0.377 | [10] -0.096 | [11] 0.107

PPP2R1A (UniProt P30153)
inactive: [1] -0.025 | [2] -0.027 | [3] -0.027 | [4] -0.023 | [5] -0.011 | [6] 0.009 | [7] 0.034 | [8] -0.014 | [9] -0.041 | [10] -0.025 | [11] 0.001

PPP1R7 (UniProt Q15435)
inactive: [1] -0.023 | [2] -0.088 | [3] -0.077 | [4] -0.032 | [5] -0.003 | [6] 0.063 | [7] -0.037 | [8] -0.041 | [9] 0.121 | [10] -0.053 | [11] 0.043

PPP1CC isoform 2 (UniProt P36873)
inactive: [1] -0.026 | [2] -0.012 | [3] 0.045 | [4] 0.033 | [5] 0.005 | [6] -0.022 | [7] 0.011 | [8] 0.009 | [9] -0.007 | [10] -0.071 | [11] -0.011

PPP2R1B isoform 2 (UniProt P30154)
inactive: [1] 0.075 | [2] -0.035 | [3] -0.121 | [4] 0.051 | [5] 0.017 | [6] 0.07 | [7] 0.048 | [8] 0.063 | [9] 0.038 | [10] -0.016 | [11] -0.011

Further records.

PPP3CA (UniProt Q08209)
inactive: [1] 0 | [2] 0.062 | [3] -0.203 | [4] 0.192 | [5] -0.04 | [6] 0.084 | [7] 0.019 | [8] 0.067 | [10] -0.02 | [11] -0.058

PPP2CA (UniProt P67775)
inactive: [1] -0.081 | [2] -0.005 | [3] -0.042 | [4] -0.013 | [5] -0.074 | [6] -0.037 | [7] 0.026 | [8] -0.036 | [9] -0.046 | [10] -0.03 | [11] -0.018

PRSS21 (UniProt Q9Y6M0)
inactive: [1] -0.014 | [2] 0.036 | [3] -0.033 | [4] 0.024 | [5] 0.025 | [6] -0.01 | [7] 0.054 | [8] 0.032 | [9] 0.029 | [10] -0.08 | [11] 0.019

PPP1R2 (UniProt P41236)
inactive: [1] 0.028 | [2] 0.009 | [3] 0.054 | [4] 0.006 | [5] 0 | [6] -0.049 | [7] -0.009 | [8] -0.013 | [9] -0.044 | [10] -0.032 | [11] 0.036

PROSER2 (UniProt Q86WR7)
inactive: [1] 0.003 | [2] 0.048 | [3] -0.103 | [4] 0.108 | [5] 0.015 | [6] -0.082 | [7] 0.055 | [8] -0.008 | [9] 0.02 | [10] 0.044 | [11] 0.015

PRMT9 (UniProt Q6P2P2)
inactive: [1] 0.165 | [2] 0.02 | [3] -0.244 | [4] -0.046 | [5] -0.011 | [6] -0.02 | [7] 0.03 | [8] 0.048 | [9] 0.114 | [10] 0.069 | [11] -0.127

PPP1R11 (UniProt O60927)
inactive: [1] -0.001 | [2] 0 | [3] 0.012 | [4] -0.02 | [5] -0.085 | [6] 0.01 | [7] 0.038 | [8] 0.054 | [9] -0.006 | [10] 0.001 | [11] -0.024

PRCC (UniProt Q92733)
inactive: [1] -0.016 | [2] -0.074 | [3] 0.035 | [4] 0 | [5] -0.015 | [6] -0.025 | [7] -0.011 | [8] 0.032 | [9] -0.048 | [10] -0.021 | [11] 0
